Data: US9340559B2, “Proteasome inhibitor delanzomib for use in the treatment of lupus” (Cephalon, Inc., priority 2011, dated 2016)
For part of these data: For at least one compound, name, drawing or mass did not settle the structure. Some of these results come from one statement about several compounds together.

How the values were obtained:
[1] = test system: MRL/lpr mice; test: Urinalysis: urine leukocytes (leukouria), Uristix, MRL/lpr mice; format: in vivo, mouse; details: range over Groups 1-5
Protocol: Urine samples are acid precipitated for total protein recovery and analysis. Samples for which enough urine remained are used for Uristix® leukouria analysis. Briefly, a standard protein solution is prepared from normal mouse sera and is used as a standard for mouse urinary protein assay by turbidity. Standard preparation is as follows: 0, 5, 10, 15, 20, 30, 40, and 50 μL of a 4 mg/mL mouse sera standard protein solution as provided in the kit are added in duplicate into two columns. PBS is added to individual wells to adjust the final volume to 50 μL. For urine sample preparation, urine samples are centrifuged at 9880×g for 3 minutes using a tabletop micro-centrifuge. Urine supernatant (1-50 μL) is added in duplicate. PBS is added to adjust the volume to 50 μL total. For the turbidity assay: 25 μL of 0.1 N HCl is added into blank columns and 250 μL of 3% sulfosalicyclic acid into the test columns. The microplate is incubated for 10 minutes at RT and plates are read using an ELISA reader with single beam at 450 nm. For the Uristix® strip assay, strips are laid out and labeled. Twenty microliters of urine are placed onto each test strip square and incubated for at least 30 seconds before the result is recorded. […]

[2] = test system: NZM mice; test: Antinuclear antibody (ANA) ELISA (anti-chromatin, anti-Smith Ag, anti-dsDNA), serum of NZM mice (Example 2); format: in vivo, mouse; details: bortezomib, Dex or CTX treatment groups

| Compound | leukouria decrease below vehicle [1] | reduction in anti-chromatin Ab relative to vehicle, significance [2] |
| --- | --- | --- |
| CC(C)C[C@H](NC(=O)[C@@H](NC(=O)c1cccc(-c2ccccc2)n1)[C@@H](C)O)B(O)O [COMPOUND A, [(1R)-1-[[(2S,3R)-3-hydroxy-2-[6-phenyl-pyridine-2-carbonyl)amino]-1-oxobutyl]amino]-3-methylbutylboronic acid] | 69-96% | – |
| C[C@@H]1C[C@H]2[C@@H]3CCC4=CC(=O)C=C[C@]4(C)[C@@]3(F)[C@@H](O)C[C@]2(C)[C@@]1(O)C(=O)CO [dexamethasone, Dexamethasone, reference compound] | – | none of which was significant |
| CC(C)C[C@H](NC(=O)[C@H](Cc1ccccc1)NC(=O)c1cnccn1)B(O)O [bortezomib, reference compound] | 69-96% | – |
